Laboratory results: the supplement of paper PMC10849652
The other results are listed elsewhere or left out. Residues, ends and D or L forms follow the SMILES beside them. *: point of attachment. Cbz = O=C(OCc1ccccc1)*

Protein sequences, listed by entry. Tags and fused reporters are not part of them. Lines headed by an entry give the natural chain unless they say otherwise; changes in a name come on top.
UniProt P32856: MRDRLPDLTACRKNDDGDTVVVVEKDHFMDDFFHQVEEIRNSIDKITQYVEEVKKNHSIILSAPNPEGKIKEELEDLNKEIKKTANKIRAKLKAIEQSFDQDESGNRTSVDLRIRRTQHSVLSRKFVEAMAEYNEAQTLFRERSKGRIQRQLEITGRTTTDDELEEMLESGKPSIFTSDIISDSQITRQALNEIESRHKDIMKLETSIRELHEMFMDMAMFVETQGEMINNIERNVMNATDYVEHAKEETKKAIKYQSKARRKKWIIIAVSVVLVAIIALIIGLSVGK

What was measured:
Assay in all cases: log2 fold change, soluble protein after heating vs DMSO (PISA); higher = thermal stabilisation; K562 cells, 10 uM, 30 min; active = over 0.2 and 3.5 SD of the protein, either way, in both replicates (recomputed)
erlotinib = compound: C#Cc1cccc(Nc2ncnc3cc(OCCOC)c(OCCOC)cc23)c1 [erlotinib]
In short: (§1)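 K562 cells at 2×10^6 cells/mL were treated for 30 min with 10 μM compound, and aliquots were heated for 3 min over 48°C-58°C before pooling. Extraction used PBS with 0.5% NP-40 at 4°C, and soluble protein was the supernatant after 21,000xg for 90 min, measured by TMTpro 16plex LC-MS/MS with channel sums equalised. Thermal stability values, relative to control samples and from duplicates, are log2 fold changes.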

[1] = compound: C/C(=N\NC(=O)C1=CC(=CC=C1)S(=O)(=O)N2CCOCC2)/C3=C(C=CC(=C3)Cl)O
In short: as §1

[2] = compound: C1=CC(=C(C=C1Cl)C2=NC3=NC=CN=C3C(=N2)NC4=CC=NC=C4)F
In short: as §1

[3] = compound: C1=CC(=CC=C1C2=NC3=C(N2)C=C(C=C3)C(=O)N)OC4=CC=C(C=C4)Cl
In short: as §1

[4] = compound: C1=CC2=C(C=CC(=C2)/C=C\3/C(=O)NC(=NCC4=CC=CS4)S3)N=C1
In short: as §1

[5] = compound: C1=CC2=NC=CN=C2C=C1/C=C/3\C(=O)NC(=O)S3
In short: as §1

[6] = compound: C1=CC=C(C=C1)C2=NC(=C(N2)C3=CC=NC=C3)C4=CC(=C(C=C4)Cl)O
In short: as §1

[7] = compound: C1=CC=C(C=C1)[C@H](COC2=CC3=C(C=C2)NC(=O)N3)NC(=O)C4=CC=CN(C4=O)CC5=CC(=C(C=C5)F)F
In short: as §1

[8] = compound: C1=CC=C2C(=C1)C3=NNC4=CC=CC(=C43)C2=O
In short: as §1

[9] = compound: C1CCN(C1)C(=O)NC2=CC=CC(=C2)NC3=NC=C(C(=N3)NCCC4=CN=CN4)Br
In short: as §1

[10] = compound: C1CN(CCC1(CC2=CC=C(C=C2)Cl)N)C3=NC=NC4=C3C=CN4
In short: as §1

IRAK-1-4 Inhibitor I = compound: C1COCCN1CCN2C3=CC=CC=C3N=C2NC(=O)C4=CC(=CC=C4)[N+](=O)[O-] [IRAK-1-4 Inhibitor I]
In short: as §1

ibrutinib = compound: C=CC(=O)N1CCC[C@@H](n2nc(-c3ccc(Oc4ccccc4)cc3)c3c(N)ncnc32)C1 [ibrutinib]
In short: as §1

[11] = compound: CC(=O)c1cnc2ccc(-c3cc(Cl)c(O)c(Cl)c3)nc2c1N[C@H]1CC[C@H](CN(C)C)CC1
In short: as §1

ralimetinib = compound: CC(C)(C)Cn1c(N)nc2ccc(-c3[nH]c(C(C)(C)C)nc3-c3ccc(F)cc3)nc21 [ralimetinib]
In short: as §1

[12] = compound: CC(C)(O)CC(=O)NCCn1ccc2ncnc(Nc3ccc(Oc4cccc(C(F)(F)F)c4)c(Cl)c3)c21
In short: as §1

[13] = compound: CC(C)C1=C2N=C(C=C(N2N=C1)NCC3=CC=CC=C3)NCCCCCCN
In short: as §1

[14] = compound: CC(C)C[C@@H](C=O)NC(=O)[C@H](CC(C)C)NC(=O)[C@H](CC(C)C)NC(=O)OCc1ccccc1
In short: as §1

pinometostat = compound: CC(C)N(C[C@H]1O[C@@H](n2cnc3c(N)ncnc32)[C@H](O)[C@@H]1O)[C@H]1C[C@@H](CCc2nc3cc(C(C)(C)C)ccc3[nH]2)C1 [pinometostat]
In short: as §1

[15] = compound: CC1=C(C(CC(=O)N1)C2=CC=C(C=C2)C(F)(F)F)C(=O)NC3=C(C=C4C(=C3)C=NN4)F
In short: as §1

[16] = compound: CC1=C(C2=C(C=C1)C(=O)C3=CC=CC=C3N2CCCN)C
In short: as §1

[17] = compound: CC1=C(C=C(C=C1)NC(=O)C2=CC(=CC=C2)C(C)(C)C#N)NC3=CC4=C(C=C3)N=CN(C4=O)C
In short: as §1

[18] = compound: CC1=C(C=C(C=C1)NC(=O)C2=CC(=CC=C2)N(C)C)NC(=O)C3=CC=C(C=C3)O
In short: as §1

[19] = compound: CC1=C(SC2=C1C(=N[C@H](C3=NN=C(N32)C)CC(=O)N)C4=CC=C(C=C4)Cl)C
In short: as §1

[20] = compound: CC1=C2C(=CC=C1)N=C(N(C2=O)C3=CC=CC=C3C)CN4C=NC5=C(N=CN=C54)N
In short: as §1

[21] = compound: CC1=CC=C(C=C1)SC2=C3C=C(SC3=CN=C2)C(=O)N
In short: as §1

[22] = compound: CC1=NC(=CC=C1)C2=C(N=C(N2)C(C)(C)C)C3=CC4=NC=CN=C4C=C3
In short: as §1

Nexturastat A = compound: CCCCN(Cc1ccc(C(=O)NO)cc1)C(=O)Nc1ccccc1 [Nexturastat A]
In short: as §1

vemurafenib = compound: CCCS(=O)(=O)Nc1ccc(F)c(C(=O)c2c[nH]c3ncc(-c4ccc(Cl)cc4)cc23)c1F [vemurafenib]
In short: as §1

[23] = compound: CCCS(=O)(=O)Nc1ccc(F)c(C(=O)c2c[nH]c3ncc(Cl)cc23)c1F
In short: as §1

[24] = compound: CCCc1cc(C)[nH]c(=O)c1CNC(=O)c1cc(-c2ccnc(N3CCN(C)CC3)c2)cc2c1cnn2C(C)C
In short: as §1

givinostat = compound: CCN(CC)Cc1ccc2cc(COC(=O)Nc3ccc(C(=O)NO)cc3)ccc2c1 [givinostat]
In short: as §1

barasertib = compound: CCN(CCCOc1ccc2c(Nc3cc(CC(=O)Nc4cccc(F)c4)[nH]n3)ncnc2c1)CCOP(=O)(O)O [barasertib]
In short: as §1

[25] = compound: CC[C@@H]1C(=O)N(C)c2cnc(Nc3ccc(C(=O)NC4CCN(C)CC4)cc3OC)nc2N1C1CCCC1
In short: as §1

volasertib = compound: CC[C@@H]1C(=O)N(C)c2cnc(Nc3ccc(C(=O)N[C@H]4CC[C@H](N5CCN(CC6CC6)CC5)CC4)cc3OC)nc2N1C(C)C [volasertib]
In short: as §1

[26] = compound: CC[C@H](C)N1C=C(C2=C(C=C(C=C21)C3=CN=C(C=C3)N4CCNCC4)C(=O)NCC5=C(C=C(NC5=O)C)C)C
In short: as §1

epoxomicin = compound: CC[C@H](C)[C@@H](C(=O)N[C@@H]([C@@H](C)O)C(=O)N[C@@H](CC(C)C)C(=O)[C@]1(CO1)C)NC(=O)[C@H]([C@@H](C)CC)N(C)C(=O)C [epoxomicin]
In short: as §1

[27] = compound: CCn1c(C(=O)N(C2CC2)C2CC2)cc2c3c(ncn3C)c(Nc3cc(C)n(C)n3)nc21
In short: as §1

[28] = compound: CCn1cc(-c2ccnc3[nH]c(-c4cccc(CN(C)C)c4)cc23)c(-c2ccc(NC(=O)N(C)C)cc2)n1
In short: as §1

[29] = compound: CN(C)CC(=O)Nc1ccc2[nH]c(=O)c3ccccc3c2c1
In short: as §1

rosiglitazone = compound: CN(CCOC1=CC=C(C=C1)C[C@H]2C(=O)NC(=O)S2)C3=CC=CC=N3 (racemic) [rosiglitazone]
In short: as §1

[30] = compound: CN1C2=C(C3=C1C(=O)N(N=C3)CC4=CC(=CC=C4)N)SC(=C2)S(=O)C
In short: as §1

[31] = compound: CN1CCC(CNc2ccc3ncc(-c4cccc(OC(F)(F)F)c4)n3n2)CC1
In short: as §1

saracatinib = compound: CN1CCN(CCOc2cc(OC3CCOCC3)c3c(Nc4c(Cl)ccc5c4OCO5)ncnc3c2)CC1 [saracatinib]
In short: as §1

sotrastaurin = compound: CN1CCN(c2nc(C3=C(c4c[nH]c5ccccc45)C(=O)NC3=O)c3ccccc3n2)CC1 [sotrastaurin]
In short: as §1

alvocidib = compound: CN1CC[C@H](c2c(O)cc(O)c3c(=O)cc(-c4ccccc4Cl)oc23)[C@H](O)C1 [alvocidib]
In short: as §1

Tubastatin A = compound: CN1CCc2c(c3ccccc3n2Cc2ccc(C(=O)NO)cc2)C1 [Tubastatin A]
In short: as §1

[32] = compound: CNC(=O)C1=CC=CC=C1NC2=NC(=NC=C2Cl)NC3=C(C=C(C=C3)N4CCOCC4)OC
In short: as §1

Measured: log2 fold change

STX2 (UniProt P32856)
inactive: erlotinib 0.141 | [1] -0.009 | [2] -0.006 | [3] 0.022 | [4] 0.059 | [5] -0.041 | [6] 0.25 | [7] -0.025 | [8] -0.046 | [9] -0.043 | [10] 0.033 | IRAK-1-4 Inhibitor I 0.079 | ibrutinib 0 | [11] -0.087 | ralimetinib 0.205 | [12] 0 | [13] -0.014 | [14] -0.183 | pinometostat -0.056 | [15] -0.072 | [16] 0.015 | [17] 0.019 | [18] -0.11 | [19] 0.076 | [20] 0.002 | [21] -0.118 | [22] -0.026 | Nexturastat A 0.134 | vemurafenib -0.026 | [23] -0.055 | [24] 0.051 | givinostat 0.015 | barasertib 0.063 | [25] 0.046 | volasertib 0.054 | [26] 0.042 | epoxomicin -0.008 | [27] -0.092 | [28] -0.042 | [29] 0.015 | rosiglitazone -0.008 | [30] 0.131 | [31] 0.14 | saracatinib 0.217 | sotrastaurin -0.047 | alvocidib 0.037 | Tubastatin A -0.011 | [32] 0.054
